This is an account of results in patent US8309552B2, “Immunomodulating heterocyclic compounds” (Medigene AG, priority 2003, dated 2012).

Amino acid sequences for entries named in this document (tags omitted). Residues count along the entry.
UniProt P33681, 35-242 limits assumed: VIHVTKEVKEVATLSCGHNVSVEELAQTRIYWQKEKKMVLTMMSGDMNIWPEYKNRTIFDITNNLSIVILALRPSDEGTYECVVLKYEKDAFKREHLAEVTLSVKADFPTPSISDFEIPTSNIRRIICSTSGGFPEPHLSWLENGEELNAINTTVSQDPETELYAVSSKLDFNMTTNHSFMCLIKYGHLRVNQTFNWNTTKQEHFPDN

The structures given here were assigned with low confidence; some may be wrong. Some results are limits rather than exact numbers.

One assay has as its system production of Interleukin-2 (IL-2) by Human Jurkat T Cells. The assay is described as follows: Inhibition of production of interleukin-2 (IL-2) by human Jurkat T cells (Raji/Jurkat co-culture, anti-CD3, IL-2 ELISA). The conditions noted are these: Compound Concentration 10 μM. The protocol:
• Collins A V et al. (2002) Immunity 17, 201-210 “The interaction properties of costimulatory molecules revisited” Inhibition of Production of Interleukin-2 (IL-2) by Human Jurkat T Cells. Method
Human Raji cells were dispensed at a concentration of 2×10^5 cells per well in RPMI-1640 medium supplemented with 10% fetal calf serum, 1% penicillin/streptomycin, 1% glutamine (RPMI medium) in a 96-well round bottom microtitre plate. Compounds under investigation (dissolved in 100% DMSO) were diluted to eight-fold the desired final concentration in RPMI medium and added to the required final concentration for a total volume of 200 μl per well. After 20 minutes incubation at 37° C., Jurkat T cells were added at a concentration of 2×10^5 cells per well. Monoclonal antibody to CD3 (UCHT1, R&D Systems) was added to the cultures at a final concentration of 1 μg per ml, and where indicated, monoclonal antibody to CD28 (CD28.2, BD-Pharmingen) was also added at a concentration of 2.5 μg per ml. Cells were cultured at 37° C. for 5 hours, after which the plates were centrifuged and the supernatants harvested for IL-2 ELISA assay using the IL-2 Eli-pair kit (DIACLONE Research, Besancon, France) according to the manufacturers instructions.
Background: ELISA stands for enzyme-linked immunosorbent assay.
`CN(C)CCCNC(=O)c1ccc(-n2[nH]c3c(nnc4ccc(F)cc43)c2=O)cc1`: the “Percentage Inhibition (relative to DMSO = 0%)” value is 48.5%.

In another assay the target is CD80-CD28 interaction (Homo sapiens, UniProt P33681). Description: Homogenous Time Resolved Fluorescence (HTRF) assay, cell free. The settings on record: read-out: Activity (EC50 in the HTRF assay); cell free HTRF assay; concentration series 100 μM-1.7 nM; 4 hours at room temperature. The protocol: Homogenous Time Resolved Fluorescence Assay
The examples described above were tested in a cell free Homogenous Time Resolved Fluorescence (HTRF) assay to determine their activity as inhibitors of the CD80-CD28 interaction.
In the assay, europium and allophycocyanin (APC) are associated with CD28 and CD80 indirectly (through antibody linkers) to form a complex, which brings the europium and APC into close proximity to generate a signal. The complex comprises the following six proteins: fluorescent label 1, linker antibody 1, CD28 fusion protein, CD80 fusion protein, linker antibody 2, and fluorescent label 2. The table below describes these reagents in greater detail.
On formation of the complex, europium and APC are brought into proximity and a signal is generated.
Non-specific interaction was measured by substituting a mouse Fab fragment (C215) for the CD80 mouse Fab fragment fusion protein (1.9 μg/ml). The assay was carried out in black 384 well plates in a final volume of 30 μl. Assay buffer: 50 mM Tris-HCl, 150 mM NaCl pH7.8, containing 0.1% BSA (w/v) added just prior to use.
Compounds were added to the above reagents in a concentration series ranging between 100 μM-1.7 nM. The reaction was incubated for 4 hours at room temperature. Dual measurements were made using a Wallac Victor 1420 Multilabel Counter. First measurement: excitation 340 nm, emission 665 nm, delay 50 μs, window time 200 μs. second measurement: excitation 340 nm, emission 615 nm, delay 50 μs, window time 200 μs. Counts were automatically corrected for fluorescence crossover, quenching and background. The EC50 activities of compounds tested are recorded as: EC50:*=>10 μM,**=1-10 μM,***=<1 μM.
Background: Time-resolved FRET reads energy transfer from a long-lived donor to a nearby acceptor.
The term EC50 denotes the midpoint of the concentration-response curve. Turning to `CN(C)CCCNC(=O)c1ccc(-n2[nH]c3c(nnc4ccc(F)cc43)c2=O)cc1`, the EC50 was under 1 µM. Same read-out and setting: for `O=C(NCc1ccccc1C(F)(F)F)c1ccc(-n2[nH]c3c(nnc4ccccc43)c2=O)cc1` the value was over 10 µM; for `CCCCN(CCCC)CCCNC(=O)c1ccc(-n2[nH]c3c(nnc4c(F)cccc43)c2=O)cc1`, under 1 µM. The same measure, in the same setting: as for `CC(C)CCCC(C)NC(=O)Nc1ccc(-n2[nH]c3c(nnc4ccccc43)c2=O)cc1` (stereo not shown), the figure is over 10 µM.

The same assay, now with this note: read-out: Activity (EC50 in the HTRF assay); cell-free HTRF, compound concentration series 100 μM-1.7 nM, 4 hours at room temperature.
Regarding `O=C(NCCCN1CCCC1=O)c1ccc(-n2[nH]c3c(nnc4ccccc43)c2=O)cc1`, the EC50 is 1 to 10 µM. Regarding `O=C(NCCCNC1CCCCC1)c1ccc(-n2[nH]c3c(nnc4ccccc43)c2=O)cc1` [Example 4, N-[(cyclohexylamino)propyl]-4-(3-oxo-1,3-dihydro-2H-pyrazolo[4,3-c]cinnolin-2-yl)benzamide], the concentration for a half-maximal effect (EC50) was under 1 µM. Turning to `CC(C)(C)OC(=O)NCCNC(=O)Nc1ccc(-n2[nH]c3c(nnc4ccccc43)c2=O)cc1`, the EC50 was in the range of 1 to 10 µM. In the case of `O=C(Nc1cccc(F)c1)c1ccc(-n2[nH]c3c(nnc4ccccc43)c2=O)cc1`, the EC50 is over 10 µM. The same measure, in the same setting: for `CC(C)NC(=O)Nc1ccc(-n2[nH]c3c(nnc4ccccc43)c2=O)cc1` the value was 1 to 10 µM.
